{"source": "PubChem BioAssay AID504834", "about": "(National Center for Advancing Translational Sciences (NCATS), 2011)", "note": "In all, about 320,000 compounds went through this assay and about 22,000 (6.9%) were called active. Inconclusive results, whose numbers are uncertain, are shown with a selection of clear calls. The call rests on the fitted dose curve; in most records, active means well fitted inhibition curve with a large enough effect; inconclusive means small, poorly fitted or top-dose-only effect, or another doubt; inactive means no such curve, though single readings can be large or run the other way. Potencies of inconclusive entries are doubtful fits and often do not repeat. Potency means the concentration at half of the fitted maximal effect."}
{"assay": "Primary qHTS for delayed death inhibitors of the malarial parasite plastid, 96 hour incubation", "settings": "P. falciparum luciferase reporter growth; series mostly up to 28.7 µM", "method_in_brief": "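Readout is luminescence from an integrated firefly luciferase in P. falciparum. Red cells, 2% hematocrit and 0.05% parasitemia final, were cultured with compound through two parasite generations (96 hours) at 37 C, 5% CO2.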"}
{"smiles": "C#CCOCCOCCOCCNc1nc(N2CCN(C(=O)[C@H](Cc3ccc(O)cc3)n3cc([C@@H](N)C(C)CC)nn3)CC2)nc(N2CCN(C(=O)[C@H](Cc3cc4ccccc4[nH]3)n3cc([C@@H](N)CC(C)C)nn3)CC2)n1", "note": "(stereo partly specified)", "Potency": "inconclusive: 4.15 µM [inhibitor, single point]"}
{"smiles": "CCC(=O)N1CCc2cc(S(=O)(=O)CCC(=O)N(C)c3ccc(OC)cc3OC)ccc21", "Potency": "inconclusive: 16.5 µM [inhibitor, single point]"}
{"smiles": "COc1ccccc1NS(=O)(=O)c1ccc2oc(SC(C)C(=O)N3CCNC3=O)nc2c1", "note": "(stereo unspecified)", "Potency": "inconclusive: 13.1 µM [inhibitor, partial curve, poor fit]"}
{"smiles": "COc1ccc(OC)c(S(=O)(=O)CC(=O)c2cc3ccc(OC)cc3oc2=O)c1", "Potency": "inconclusive: 18.5 µM [inhibitor, single point]"}
{"smiles": "Cc1cccc(CS(=O)(=O)Cc2ccc(C(=O)NCc3cccs3)o2)c1", "Potency": "inconclusive: 0.828 µM [inhibitor, full curve]"}
{"smiles": "CCn1ccnc1CN(C)Cc1cn[nH]c1-c1ccc(F)cc1F", "Potency": "active: 11.7 µM"}
{"smiles": "Cc1ccc(S(=O)(=O)N2CCC(C(=O)N[C@@H](C)C(=O)NCCc3ccccc3)CC2)cc1", "Potency": "inconclusive: 4.15 µM [inhibitor, single point]"}
{"smiles": "CC(C)C[C@H]1C(=O)N2CCCC2[C@]2(O)O[C@](NC(=O)[C@@H]3C=C4c5cccc6[nH]cc(c56)CC4N(C)C3)(C(C)C)C(=O)N12", "note": "(stereo partly specified)", "Potency": "active: 2.33 µM"}
{"smiles": "CCOC(=O)c1cccc(NC(=O)CCc2nnc3ccc(N4CCCCC4)nn23)c1", "Potency": "inconclusive: 18.5 µM [inhibitor, single point]"}
{"smiles": "O=c1c2c(-c3cccs3)csc2ncn1-c1ccccc1", "Potency": "active: 11.7 µM"}
{"smiles": "O=C1C(C23CC4CC(CC(C4)C2)C3)C(=O)N(c2ccccc2)N1c1ccccc1", "Potency": "active: 7.38 µM"}
{"smiles": "CN(C)S(=O)(=O)c1ccc(C(=O)NNc2nc(-c3ccccc3)c3cc(Br)ccc3n2)cc1", "Potency": "inconclusive: 9.28 µM [inhibitor, single point]"}
{"smiles": "NC(=O)c1cc(-c2ccccc2)sc1NC(=O)CN1CCCCC1", "Potency": "inconclusive: 18.5 µM [inhibitor, single point]"}
{"smiles": "COc1ccccc1C1(O)C(=O)Nc2ccccc21", "note": "(stereo unspecified)", "Potency": "inconclusive: 18.5 µM [inhibitor, single point]"}
{"smiles": "Cc1noc(C)c1COc1ccc(C(=O)Nc2ccccc2)cc1", "Potency": "inactive"}
{"smiles": "CC(=O)Nc1ccc(NC(=O)Cn2nc(C(=O)Nc3ccc(C)cc3)ccc2=O)cc1", "Potency": "inactive"}
{"smiles": "Cn1c(=O)c2c(nc(CN3CCN(Cc4ccccc4)CC3)n2Cc2ccccc2)n(C)c1=O", "Potency": "inconclusive: 11.7 µM [inhibitor, single point]"}
{"smiles": "CC(=O)OC(C(=O)NC1CCCCC1)c1ccccc1F", "note": "(stereo unspecified)", "Potency": "active: 9.28 µM"}
{"smiles": "Cn1c(SCC(=O)N2CCCC2)nnc1-c1ccc(S(=O)(=O)N2CCCC2)cc1", "Potency": "inactive"}
{"smiles": "Cc1ccc(CSc2nnc(-c3ccccn3)n2C)cc1", "Potency": "inactive"}
{"smiles": "Fc1ccc(N2CCN(Cc3ccccn3)CC2)cc1", "Potency": "inconclusive: 0.0026 µM [inhibitor, full curve, poor fit]"}
{"smiles": "O=C(NNC(=S)Nc1ccccc1)c1ccc2ncccc2c1", "Potency": "inactive"}
{"smiles": "COc1ccc(NC(=O)C(=O)NCC(c2ccco2)N2CCc3ccccc3C2)cc1OC", "note": "(stereo unspecified)", "Potency": "inconclusive: 9.28 µM [inhibitor, partial curve, poor fit]"}
{"smiles": "CCN(CC)S(=O)(=O)c1ccc2oc(SCc3ccc(F)cc3)nc2c1", "Potency": "inconclusive: 13.1 µM [inhibitor, single point]"}
{"smiles": "Cc1cccc(NC(=O)c2cnc3ccccn3c2=O)c1", "Potency": "active: 11.7 µM"}
{"smiles": "Cc1ccc(S(=O)(=O)Cc2ccc(C(=O)N3CCC(C(N)=O)CC3)o2)cc1", "Potency": "active: 10.4 µM"}
{"smiles": "Clc1ccc(CSc2ncn[nH]2)cc1", "Potency": "inactive"}
{"smiles": "O=C(CCl)NCCN1C(=O)S/C(=C\\c2cccnc2)C1=O", "Potency": "inconclusive: 8.28 µM [inhibitor, partial curve, poor fit]"}
{"smiles": "CCOc1ccccc1NC(=S)N1CCN(c2ccccc2)CC1", "Potency": "inconclusive: 2.08 µM [inhibitor, partial curve, poor fit]"}
{"smiles": "C=CCNC(=S)Nc1cccc(NC(=S)NCC=C)c1", "Potency": "inconclusive: 18.5 µM [inhibitor, single point]"}
{"smiles": "CCN1CCN(C(=O)NC2CC(=O)N(c3ccc(OC)cc3)C2)CC1", "note": "(stereo unspecified)", "Potency": "inconclusive: 18.5 µM [inhibitor, single point]"}
{"smiles": "Cc1ccc(NC(=S)N2CCC(c3nc4ccccc4s3)CC2)cc1C", "Potency": "inactive"}
{"smiles": "CCSC1=N/C(=C/c2ccsc2)C(=O)N1c1ccccc1", "Potency": "active: 7.38 µM"}
{"smiles": "CCOC(=O)c1csc(NC(=O)c2ccc(S(=O)(=O)N(CC)CC)cc2)n1", "Potency": "inactive"}
{"smiles": "CC1(C)CC(C)(O)N(Cc2ccccc2)C(=S)N1", "note": "(stereo unspecified)", "Potency": "inconclusive: 11.7 µM [inhibitor, partial curve, poor fit]"}
{"smiles": "CC(=O)Nc1ccc(N(C(=O)Cc2cccs2)C(C(=O)NC2CCCC2)c2ccncc2)cc1", "note": "(stereo unspecified)", "Potency": "inconclusive: 5.86 µM [inhibitor, partial curve, poor fit]"}
{"smiles": "Cc1cc(=O)oc2c(C)c(OCC(=O)NC3CCN(Cc4ccccc4)CC3)ccc12", "Potency": "inconclusive: 18.5 µM [inhibitor, single point]"}
{"smiles": "COC(=O)C1=C(c2ccc3ccccc3c2)C[C@@H]2CC[C@H]1N2C(=O)N1CCC(O)CC1", "Potency": "inactive"}
{"smiles": "Clc1ccc(-c2nc(NCCCN3CCOCC3)c3ccccc3n2)cc1", "Potency": "inconclusive: 16.5 µM [inhibitor, single point]"}
{"smiles": "Cc1ccc2oc(C(=O)N(C)Cc3cnccn3)c(C)c2c1", "Potency": "inconclusive: 18.5 µM [inhibitor, single point]"}
{"smiles": "O=C(N/N=C/c1ccc(O)c(O)c1)N/N=C/c1ccc(O)c(O)c1", "Potency": "inactive"}
{"smiles": "Nc1nnc(CC(=O)N/N=C/c2ccc(-c3ccccc3)o2)s1", "Potency": "inactive"}
{"smiles": "Cc1ccc(-n2c(SCC(=O)O)nc3sc4c(c3c2=O)CCCC4)cc1", "Potency": "active: 2.94 µM"}
{"smiles": "O=C(NC1CCSc2ccccc21)c1cccc(Cl)c1", "note": "(stereo unspecified)", "Potency": "active: 14.7 µM"}
{"smiles": "C/C(CCc1ccccc1)=N\\NC(=O)CCc1ccccc1", "Potency": "inactive"}
{"smiles": "Cc1ccc2cc(CCNC(=O)c3ccc(S(=O)(=O)N4CCCCC4)cc3)c(=O)[nH]c2c1", "Potency": "inconclusive: 4.65 µM [inhibitor, partial curve, poor fit]"}
{"smiles": "CCN(CC)S(=O)(=O)c1ccc(C(=O)NCCSc2c[nH]c3ccccc23)cc1", "Potency": "inconclusive: 9.28 µM [inhibitor, single point]"}
{"smiles": "CN(CC(=O)Nc1ccc(Cl)c(C(F)(F)F)c1)C(=O)Cc1ccsc1", "Potency": "inactive"}
{"smiles": "Cc1cc2cc(OCc3ccccc3)ccc2n1C", "Potency": "inconclusive: 13.1 µM [inhibitor, single point]"}
{"smiles": "COc1cccc(C(=O)NC23CC4CC(CC(C4)C2)C3)c1", "Potency": "inactive"}
{"smiles": "O=NN1CCN(c2ccncc2S(=O)(=O)N2CCCCC2)CC1", "Potency": "inactive"}
{"smiles": "Cc1cc(NS(=O)(=O)c2ccc(NC(=O)C(C)Oc3cc(C)c(Cl)c(C)c3)cc2)no1", "note": "(stereo unspecified)", "Potency": "inconclusive: 18.5 µM [inhibitor, partial curve, poor fit]"}
{"smiles": "O=S(=O)(c1ccc(-c2csc(-c3cccnc3)n2)cc1)N1CCCC1", "Potency": "inactive"}
{"smiles": "CO/N=C/CC(=O)c1cnc(-c2ccccc2)s1", "Potency": "inactive"}
{"smiles": "COc1ccccc1OP(=O)(Nc1cccnc1)Oc1ccccc1OC", "Potency": "inconclusive: 18.5 µM [inhibitor, single point]"}
{"smiles": "O=C(CSCc1cccc(F)c1)N1CCN(c2ccccc2)CC1", "Potency": "inconclusive: 18.5 µM [inhibitor, partial curve, poor fit]"}
{"smiles": "COc1ccc(C(=O)CN2C(=O)c3ccccc3C2=O)c(OC)c1", "Potency": "inactive"}
{"smiles": "Cc1cc(NC(=O)c2ccc(NC(=O)c3cccs3)cc2)no1", "Potency": "inactive"}
{"smiles": "COc1cc(C(=S)N2CCN(c3ccccc3Cl)CC2)cc(O)c1O", "Potency": "inconclusive: 11.7 µM [inhibitor, single point]"}
{"smiles": "Cc1nc(SCC(=O)Nc2c(C)nn(C)c2C)c2cnn(-c3ccccc3)c2n1", "Potency": "inactive"}
{"smiles": "CCN(CC)c1ccc(C(=O)OCC(=O)N2CCCC2)cc1", "Potency": "inactive"}
{"smiles": "COc1cc(-c2cc(C(=O)O)c3c(OC)c(OC)c(OC)cc3n2)ccc1O", "Potency": "inconclusive: 0.465 µM [inhibitor, full curve, poor fit]"}
{"smiles": "CCOCCc1nn2c(=O)cc(CSCC(=O)Nc3ccc(OC)cc3)nc2s1", "Potency": "inactive"}
{"smiles": "COc1ccc(NC(=O)[C@H](C)NC(=O)[C@@H]2Cc3ccccc3CN2C(=O)OC(C)(C)C)cc1", "Potency": "inconclusive: 8.28 µM [inhibitor, partial curve, poor fit]"}
{"smiles": "Cc1cc(Nc2ncc(Cl)cc2Cl)n(-c2ccccc2C)n1", "Potency": "inconclusive: 9.28 µM [inhibitor, partial curve, poor fit]"}
{"smiles": "O=C(Nc1ccccc1CC[N+](=O)[O-])N1CCN(c2ccccc2)CC1", "Potency": "active: 11.7 µM"}
{"smiles": "Cc1cc(C)cc(C(=O)Nc2ccc(NC(=O)Cc3ccccc3)cc2)c1", "Potency": "inactive"}
{"smiles": "N/C(=N\\OC(=O)COc1ccc(Cl)cc1Br)c1cccnc1", "Potency": "inconclusive: 9.28 µM [inhibitor, partial curve, poor fit]"}
{"smiles": "O=C(c1c[nH]c2ccc(S(=O)(=O)N3CCC4(CC3)OCCO4)cc2c1=O)N1CCOCC1", "Potency": "inconclusive: 4.65 µM [inhibitor, partial curve]"}
{"smiles": "O=C(CSc1nc2ccccc2c(=O)n1-c1cccc(C(F)(F)F)c1)NC1CC1", "Potency": "inconclusive: 14.7 µM [inhibitor, partial curve]"}
{"smiles": "C=CCNC(=S)N/N=C/c1ccc(C)cc1C", "Potency": "inconclusive: 10.4 µM [inhibitor, single point]"}
